Laboratory results taken from the supplement of paper PMC8728848.
This is one part of the list.

Tests used:
Test in all cases: glycan array binding signal (z-score within array); higher = stronger binding
Settings in all cases: glycan notation: IUPAC condensed, linker removed
[1] = biological target: GlcNAc(b1-2)[GlcNAc(b1-4)]Man(a1-3)[GlcNAc(b1-4)][GlcNAc(b1-2)[GlcNAc(b1-6)]Man(a1-6)]Man(b1-4)GlcNAc(b1-4)GlcNAc
Procedure, shortened: (§1)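 Negative Z-scores can be read as non-binding. The Z-score is calculated within each array and then averaged across arrays of one protein sequence at different concentrations or buffers and across linkers. Arrays, 3228 in all, were curated from the Consortium for Functional Glycomics database and kept only where the protein sequence was available.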

[2] = biological target: GlcNAc(b1-2)[GlcNAc(b1-4)]Man(a1-3)[GlcNAc(b1-4)][GlcNAc(b1-2)[GlcNAc(b1-6)]Man(a1-6)]Man(b1-4)GlcNAc(b1-4)[Fuc(a1-6)]GlcNAc
Procedure, shortened: as §1

[3] = biological target: GlcNAc(b1-2)[GlcNAc(b1-6)]Man(a1-6)[GlcNAc(b1-2)Man(a1-3)]Man(b1-4)GlcNAc(b1-4)GlcNAc
Procedure, shortened: as §1

[4] = biological target: GlcNAc(b1-2)[GlcNAc(b1-6)]Man(a1-6)[GlcNAc(b1-2)Man(a1-3)]Man(b1-4)GlcNAc(b1-4)[Fuc(a1-6)]GlcNAc
Procedure, shortened: as §1

[5] = biological target: GlcNAc(b1-2)[GlcNAc(b1-6)]Man(a1-6)[GlcNAc(b1-4)][GlcNAc(b1-2)Man(a1-3)]Man(b1-4)GlcNAc(b1-4)GlcNAc
Procedure, shortened: as §1

GlcNAc(b1-3)Fuc = biological target: GlcNAc(b1-3)Fuc
Procedure, shortened: as §1

GlcNAc(b1-3)Gal = biological target: GlcNAc(b1-3)Gal
Procedure, shortened: as §1

[6] = biological target: GlcNAc(b1-3)Gal(b1-3)GalNAc
Procedure, shortened: as §1

GlcNAc(b1-3)Gal(b1-4)Glc = biological target: GlcNAc(b1-3)Gal(b1-4)Glc
Procedure, shortened: as §1

[7] = biological target: GlcNAc(b1-3)Gal(b1-4)GlcNAc
Procedure, shortened: as §1

[8] = biological target: GlcNAc(b1-3)Gal(b1-4)GlcNAc(b1-2)Man(a1-3)[GlcNAc(b1-3)Gal(b1-4)GlcNAc(b1-2)Man(a1-6)]Man(b1-4)GlcNAc(b1-4)GlcNAc
Procedure, shortened: as §1

[9] = biological target: GlcNAc(b1-3)Gal(b1-4)GlcNAc(b1-2)Man(a1-3)[GlcNAc(b1-3)Gal(b1-4)GlcNAc(b1-2)Man(a1-6)]Man(b1-4)GlcNAc(b1-4)[Fuc(a1-6)]GlcNAc
Procedure, shortened: as §1

[10] = biological target: GlcNAc(b1-3)Gal(b1-4)GlcNAc(b1-2)[GlcNAc(b1-3)Gal(b1-4)GlcNAc(b1-6)]Man(a1-6)[GlcNAc(b1-3)Gal(b1-4)GlcNAc(b1-2)Man(a1-3)]Man(b1-4)GlcNAc(b1-4)GlcNAc
Procedure, shortened: as §1

[11] = biological target: GlcNAc(b1-3)Gal(b1-4)GlcNAc(b1-3)Gal(b1-4)GlcNAc
Procedure, shortened: as §1

[12] = biological target: GlcNAc(b1-3)Gal(b1-4)GlcNAc(b1-3)Gal(b1-4)GlcNAc(b1-2)Man(a1-3)[GlcNAc(b1-3)Gal(b1-4)GlcNAc(b1-3)Gal(b1-4)GlcNAc(b1-2)Man(a1-6)]Man(b1-4)GlcNAc(b1-4)GlcNAc
Procedure, shortened: as §1

[13] = biological target: GlcNAc(b1-3)Gal(b1-4)GlcNAc(b1-3)Gal(b1-4)GlcNAc(b1-2)Man(a1-3)[GlcNAc(b1-3)Gal(b1-4)GlcNAc(b1-3)Gal(b1-4)GlcNAc(b1-2)Man(a1-6)]Man(b1-4)GlcNAc(b1-4)[Fuc(a1-6)]GlcNAc
Procedure, shortened: as §1

[14] = biological target: GlcNAc(b1-3)Gal(b1-4)GlcNAc(b1-3)Gal(b1-4)GlcNAc(b1-2)[GlcNAc(b1-3)Gal(b1-4)GlcNAc(b1-3)Gal(b1-4)GlcNAc(b1-6)]Man(a1-6)[GlcNAc(b1-3)Gal(b1-4)GlcNAc(b1-3)Gal(b1-4)GlcNAc(b1-2)Man(a1-3)]Man(b1-4)GlcNAc(b1-4)[Fuc(a1-6)]GlcNAc
Procedure, shortened: as §1

[15] = biological target: GlcNAc(b1-3)Gal(b1-4)GlcNAc(b1-3)Gal(b1-4)GlcNAc(b1-3)Gal(b1-4)GlcNAc(b1-2)Man(a1-3)[GlcNAc(b1-3)Gal(b1-4)GlcNAc(b1-3)Gal(b1-4)GlcNAc(b1-3)Gal(b1-4)GlcNAc(b1-2)Man(a1-6)]Man(b1-4)GlcNAc(b1-4)GlcNAc
Procedure, shortened: as §1

[16] = biological target: GlcNAc(b1-3)Gal(b1-4)GlcNAc(b1-3)Gal(b1-4)GlcNAc(b1-3)Gal(b1-4)GlcNAc(b1-2)Man(a1-3)[GlcNAc(b1-3)Gal(b1-4)GlcNAc(b1-3)Gal(b1-4)GlcNAc(b1-3)Gal(b1-4)GlcNAc(b1-2)Man(a1-6)]Man(b1-4)GlcNAc(b1-4)[Fuc(a1-6)]GlcNAc
Procedure, shortened: as §1

[17] = biological target: GlcNAc(b1-3)Gal(b1-4)GlcNAc(b1-3)Gal(b1-4)GlcNAc(b1-3)Gal(b1-4)GlcNAc(b1-2)[GlcNAc(b1-3)Gal(b1-4)GlcNAc(b1-3)Gal(b1-4)GlcNAc(b1-3)Gal(b1-4)GlcNAc(b1-6)]Man(a1-6)[GlcNAc(b1-3)Gal(b1-4)GlcNAc(b1-3)Gal(b1-4)GlcNAc(b1-3)Gal(b1-4)GlcNAc(b1-2)Man(a1-3)]Man(b1-4)GlcNAc(b1-4)[Fuc(a1-6)]GlcNAc
Procedure, shortened: as §1

[18] = biological target: GlcNAc(b1-3)Gal(b1-4)GlcNAc(b1-3)Gal(b1-4)GlcNAc(b1-3)Gal(b1-4)GlcNAc(b1-3)Gal(b1-4)GlcNAc(b1-2)Man(a1-3)[GlcNAc(b1-3)Gal(b1-4)GlcNAc(b1-3)Gal(b1-4)GlcNAc(b1-3)Gal(b1-4)GlcNAc(b1-3)Gal(b1-4)GlcNAc(b1-2)Man(a1-6)]Man(b1-4)GlcNAc(b1-4)GlcNAc
Procedure, shortened: as §1

[19] = biological target: GlcNAc(b1-3)Gal(b1-4)GlcNAc(b1-3)Gal(b1-4)GlcNAc(b1-3)Gal(b1-4)GlcNAc(b1-3)Gal(b1-4)GlcNAc(b1-2)Man(a1-3)[GlcNAc(b1-3)Gal(b1-4)GlcNAc(b1-3)Gal(b1-4)GlcNAc(b1-3)Gal(b1-4)GlcNAc(b1-3)Gal(b1-4)GlcNAc(b1-2)Man(a1-6)]Man(b1-4)GlcNAc(b1-4)[Fuc(a1-6)]GlcNAc
Procedure, shortened: as §1

[20] = biological target: GlcNAc(b1-3)Gal(b1-4)GlcNAc(b1-3)Gal(b1-4)GlcNAc(b1-3)Gal(b1-4)GlcNAc(b1-3)Gal(b1-4)GlcNAc(b1-2)[GlcNAc(b1-3)Gal(b1-4)GlcNAc(b1-3)Gal(b1-4)GlcNAc(b1-3)Gal(b1-4)GlcNAc(b1-3)Gal(b1-4)GlcNAc(b1-6)]Man(a1-6)[GlcNAc(b1-3)Gal(b1-4)GlcNAc(b1-3)Gal(b1-4)GlcNAc(b1-3)Gal(b1-4)GlcNAc(b1-3)Gal(b1-4)GlcNAc(b1-2)Man(a1-3)]Man(b1-4)GlcNAc(b1-4)[Fuc(a1-6)]GlcNAc
Procedure, shortened: as §1

[21] = biological target: GlcNAc(b1-3)Gal(b1-4)GlcNAc(b1-3)Gal(b1-4)GlcNAc(b1-3)GalNAc
Procedure, shortened: as §1

[22] = biological target: GlcNAc(b1-3)Gal(b1-4)GlcNAc(b1-3)GalNAc
Procedure, shortened: as §1

[23] = biological target: GlcNAc(b1-3)Gal(b1-4)GlcNAc(b1-3)[GlcNAc(b1-3)Gal(b1-4)GlcNAc(b1-3)]GalNAc
Procedure, shortened: as §1

[24] = biological target: GlcNAc(b1-3)Gal(b1-4)GlcNAc(b1-6)[Gal(b1-3)]GalNAc
Procedure, shortened: as §1

[25] = biological target: GlcNAc(b1-3)Gal(b1-4)GlcNAc(b1-6)[GlcNAc(b1-3)Gal(b1-3)]GalNAc
Procedure, shortened: as §1

[26] = biological target: GlcNAc(b1-3)Gal(b1-4)GlcNAc(b1-6)[GlcNAc(b1-3)]Gal(b1-4)GlcNAc
Procedure, shortened: as §1

GlcNAc(b1-3)GalNAc = biological target: GlcNAc(b1-3)GalNAc
Procedure, shortened: as §1

GlcNAc(b1-3)Man = biological target: GlcNAc(b1-3)Man
Procedure, shortened: as §1

[27] = biological target: GlcNAc(b1-3)[GlcNAc(b1-4)][GlcNAc(b1-6)]GlcNAc
Procedure, shortened: as §1

[28] = biological target: GlcNAc(b1-3)[GlcNAc(b1-6)]Gal(b1-4)GlcNAc
Procedure, shortened: as §1

[29] = biological target: GlcNAc(b1-3)[GlcNAc(b1-6)]GalNAc
Procedure, shortened: as §1

[30] = biological target: GlcNAc(b1-4)Gal(b1-4)GlcNAc
Procedure, shortened: as §1

GlcNAc(b1-4)GlcNAc = biological target: GlcNAc(b1-4)GlcNAc
Procedure, shortened: as §1

[31] = biological target: GlcNAc(b1-4)GlcNAc(b1-4)GlcNAc
Procedure, shortened: as §1

[32] = biological target: GlcNAc(b1-4)GlcNAc(b1-4)GlcNAc(b1-4)GlcNAc(b1-4)GlcNAc
Procedure, shortened: as §1

B1: PX14343E-bfa-545-24-545 (Bacteroides fragilis) (protein)
chain: LDRYPQEELSDGSFWKTPDDANKVVSDLYGYLSTWDQDNDINSDNATMGIKWAAGNVSKGIYDPADQGWSGDYANVRQCNLILSKIDEIPDYPEADKTKALGQVYFFRAYIYFNLIRSFGDVPYIDKPLDLKDMEGITRMPRAEVYEKIMADFDKAIAALPTEWGASDYGRVTKGAAMAMKARAALYYGNWDTAATEAKNVMDLGLYELYDKDNTGKYAELFWEKADGCDEFILVTQFNYPDKTHYLMGWECFPTKGWGGMNPTQSLVDAFEDSEGAPISKSKIYDPTDPFKNRDPRLEVDILHDGEEMYGVTIKVAPLASSGSTGINQHNDATETGYYGQKWLDPSLDPLSDGWNMGKDWVHIRYAEVLLTYAEAKNELQGLDPEAFDAVNQVRRRVGMPELQNTDPSKPTYCATQDDLRQRIRNEWRVEFCLEGGKRMWDIRRWGIAKDVLNAPFEGLKYKIVDNPNDPDKKVDGGKMCILYQGDPIILSGSRYSDNNYLFPVPQSEIDLNPALTQNPGY
glycan array binding signal (z-score) [1]: -0.181
glycan array binding signal (z-score) [2]: -0.534
glycan array binding signal (z-score) [3]: -0.172
glycan array binding signal (z-score) [4]: -0.15
glycan array binding signal (z-score) [5]: -0.402
glycan array binding signal (z-score) (GlcNAc(b1-3)Fuc): -0.635
glycan array binding signal (z-score) (GlcNAc(b1-3)Gal): 0.401
glycan array binding signal (z-score) [6]: 0.128
glycan array binding signal (z-score) (GlcNAc(b1-3)Gal(b1-4)Glc): -0.803
glycan array binding signal (z-score) [7]: -0.576
glycan array binding signal (z-score) [8]: 0.164
glycan array binding signal (z-score) [9]: 0.612
glycan array binding signal (z-score) [10]: 0.412
glycan array binding signal (z-score) [11]: 0.612
glycan array binding signal (z-score) [12]: 0.918
glycan array binding signal (z-score) [13]: 0.777
glycan array binding signal (z-score) [14]: -0.324
glycan array binding signal (z-score) [15]: 1.67
glycan array binding signal (z-score) [16]: -0.045
glycan array binding signal (z-score) [17]: 0.067
glycan array binding signal (z-score) [18]: -0.224
glycan array binding signal (z-score) [19]: 0.16
glycan array binding signal (z-score) [20]: 0.637
glycan array binding signal (z-score) [21]: -0.534
glycan array binding signal (z-score) [22]: 0.418
glycan array binding signal (z-score) [23]: -0.23
glycan array binding signal (z-score) [24]: -0.135
glycan array binding signal (z-score) [25]: -0.017
glycan array binding signal (z-score) [26]: -0.168
glycan array binding signal (z-score) (GlcNAc(b1-3)GalNAc): -0.557
glycan array binding signal (z-score) (GlcNAc(b1-3)Man): 0.322
glycan array binding signal (z-score) [27]: 1.29
glycan array binding signal (z-score) [28]: -0.611
glycan array binding signal (z-score) [29]: -0.256
glycan array binding signal (z-score) [30]: -0.613
glycan array binding signal (z-score) (GlcNAc(b1-4)GlcNAc): 0.154
glycan array binding signal (z-score) [31]: -0.884
glycan array binding signal (z-score) [32]: -0.415
